In publication PMC11530599:
These are yes or no findings as the source states them, for the method shown. Binding seen in cells or lysates may run through a third protein. Some entries that bind do so weakly or less than the wild type. For some assays here: Where a sequence is shown, tags or fusion partners need not be part of it.

Sequences of proteins named here, by UniProt entry; tags and fusion partners are left off.
UniProt Q9H9Q4: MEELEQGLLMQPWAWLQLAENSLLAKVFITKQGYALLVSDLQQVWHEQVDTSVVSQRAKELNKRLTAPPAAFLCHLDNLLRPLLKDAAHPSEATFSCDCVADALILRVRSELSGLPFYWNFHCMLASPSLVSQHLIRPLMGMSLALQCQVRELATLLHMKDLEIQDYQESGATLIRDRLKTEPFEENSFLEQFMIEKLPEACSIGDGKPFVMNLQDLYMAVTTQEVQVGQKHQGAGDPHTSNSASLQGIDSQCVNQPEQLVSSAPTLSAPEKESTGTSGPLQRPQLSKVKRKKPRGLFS

Key:
[1] = molecular target: T1, endogenous UHRF1 (Ubiquitin-like with PHD and Ring Finger domains 1) (human (endogenous in HeLa)) (UniProt Q96T88); assay: co-IP; endogenous proteins, HeLa whole-cell lysate; IP with anti-XLF or anti-UHRF1 antibody, Western blot; also untreated against 10 Gy IR for 30 min followed by 80 μM VP16 for 2 h (IP anti-UHRF1; interaction enhanced after DNA damage); NP-40 lysis buffer, 4 °C
T1 sequence: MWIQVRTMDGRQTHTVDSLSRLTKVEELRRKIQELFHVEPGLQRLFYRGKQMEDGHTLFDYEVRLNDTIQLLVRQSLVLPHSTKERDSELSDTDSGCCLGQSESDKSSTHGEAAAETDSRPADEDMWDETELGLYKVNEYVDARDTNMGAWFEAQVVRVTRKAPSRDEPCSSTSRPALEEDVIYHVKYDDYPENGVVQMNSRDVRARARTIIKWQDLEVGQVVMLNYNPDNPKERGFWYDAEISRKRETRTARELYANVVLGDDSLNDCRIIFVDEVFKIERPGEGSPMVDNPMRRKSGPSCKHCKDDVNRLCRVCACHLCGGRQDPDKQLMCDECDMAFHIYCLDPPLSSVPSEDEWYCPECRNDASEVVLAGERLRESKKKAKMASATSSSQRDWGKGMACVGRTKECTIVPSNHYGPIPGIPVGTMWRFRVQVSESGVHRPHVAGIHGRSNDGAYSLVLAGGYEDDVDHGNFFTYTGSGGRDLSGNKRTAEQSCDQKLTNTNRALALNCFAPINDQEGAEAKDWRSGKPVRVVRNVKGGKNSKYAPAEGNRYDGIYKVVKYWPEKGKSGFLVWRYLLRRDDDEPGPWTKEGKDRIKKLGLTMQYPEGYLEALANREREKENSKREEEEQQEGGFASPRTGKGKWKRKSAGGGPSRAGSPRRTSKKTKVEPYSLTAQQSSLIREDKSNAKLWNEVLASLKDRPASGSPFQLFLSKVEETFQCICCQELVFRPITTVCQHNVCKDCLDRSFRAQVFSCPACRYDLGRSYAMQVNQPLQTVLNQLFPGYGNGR

[2] = molecular target: T2, Flag-labeled UHRF1 (Ubiquitin-like with PHD and Ring Finger domains 1) (UniProt Q96T88); assay: co-IP; Flag-XLF or Flag-UHRF1 overexpressed in HeLa cells for 48 h, after DNA damage; whole-cell lysate with BenzoNuclease; IP with anti-Flag antibody, Western blot of the endogenous partner; NP-40 lysis buffer (20 mM Tris-HCl pH 8.0, 137 mM NaCl, 10% glycerol, 1% NP-40), beads at 4 °C for 10 to 12 h
T2 sequence: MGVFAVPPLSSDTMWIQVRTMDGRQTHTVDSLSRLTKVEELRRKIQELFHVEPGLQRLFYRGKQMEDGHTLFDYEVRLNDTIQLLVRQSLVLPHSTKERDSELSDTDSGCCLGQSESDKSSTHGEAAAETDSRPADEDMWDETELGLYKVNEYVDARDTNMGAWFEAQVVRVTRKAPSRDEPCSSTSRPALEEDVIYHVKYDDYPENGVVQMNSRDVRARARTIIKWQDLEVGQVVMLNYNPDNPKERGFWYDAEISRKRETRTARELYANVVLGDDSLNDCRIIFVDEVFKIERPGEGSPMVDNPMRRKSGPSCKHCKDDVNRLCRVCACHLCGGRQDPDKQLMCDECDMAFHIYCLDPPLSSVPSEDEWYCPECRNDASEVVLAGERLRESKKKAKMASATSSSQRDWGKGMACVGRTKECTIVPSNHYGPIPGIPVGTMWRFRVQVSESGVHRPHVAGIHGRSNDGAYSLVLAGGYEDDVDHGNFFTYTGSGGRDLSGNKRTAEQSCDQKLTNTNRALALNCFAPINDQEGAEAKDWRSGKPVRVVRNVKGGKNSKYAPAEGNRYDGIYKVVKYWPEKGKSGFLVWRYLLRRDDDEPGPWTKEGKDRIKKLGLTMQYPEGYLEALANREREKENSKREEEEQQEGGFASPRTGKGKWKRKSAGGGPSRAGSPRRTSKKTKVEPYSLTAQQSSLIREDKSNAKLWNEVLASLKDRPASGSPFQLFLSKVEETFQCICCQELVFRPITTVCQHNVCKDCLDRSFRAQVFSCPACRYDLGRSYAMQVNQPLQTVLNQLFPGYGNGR

## endogenous XLF (nonhomologous end joining factor XLF) (from UniProt Q9H9Q4 1-299)
[1]
  binding: binds
[2]
  binding: binds
